# Measurements published in paper PMC10690479.
# Results are given in words; binding and its absence hold for the method and conditions named. In cells and extracts the contact can be indirect. These calls come from enrichment with a bait or labelling near it, and not all partners need be listed. A no says only that the protein was not detected with the bait.
# Legend:
# [1] = target: recombinant human dynein tail complex (human); experiment: affinity purification with mass spectrometry; as a1, but the mouse brain extract was spiked with 50 μg purified dynactin (41.67 pmol, 48.45 nM); only the target purified
# [2] = target: recombinant human dynein tail complex (human); experiment: affinity purification with mass spectrometry; dynein tail complex (100 pmol) held on glutathione magnetic beads (by GST, C-terminally tethered) or on IgG magnetic beads (by ZZ, N-terminally tethered); 500 μl mouse brain extract (5 mg protein), no exogenous dynactin, 2.5 h at 4°C; washed in Citomix buffer; label-free quantitative proteomics against beads with GST or protein A only; only the target purified
# [3] = target: recombinant human dynein tail complex (human); experiment: condition: only without exogenous dynactin spiked into the extract; affinity purification with mass spectrometry; dynein tail complex (100 pmol) held on glutathione magnetic beads (by GST, C-terminally tethered) or on IgG magnetic beads (by ZZ, N-terminally tethered); 500 μl mouse brain extract (5 mg protein), no exogenous dynactin, 2.5 h at 4°C; washed in Citomix buffer; label-free quantitative proteomics against beads with GST or protein A only; only the target purified
binding [1],binding [2],binding [3],Binder
no binding,no binding,,"γ-synergin, mouse brain (protein, UniProt Q5SV85 1-1306) MALRPGAGASGAAGAGAGPGGAGSFMFPVAGGMRPPQAGLIPMQQQGFPMVSVMQPNMQGMMGMNYSSQMSQGPIAMQAGIPMGPMPAAGVPFLGQPPFLSMRPAGPQYTPDMQKQFAEEQQKRFEQQQKLLEEERKRRQFEEQKQKLRLLSSVKPKTGEKNRDDALEAIKGNLDGFSRDAKMHPTPASHPKKQGPSLEEKLLVSCDVSASGQEHIKLNTPDAGHKAIVPGSSKNCPGLMAHNRGAVDGCVSGPASAEAEKTSDQTLSKEESGVGVFPSQDPAQSRMPPWIYNESLVPDAYKKILETTMTPTGIDTAKLYPILMSSGLPRETLGQIWALANRTTPGRLTKEELYTVLAMVAVTQRGVPAMSPDALSQFPAAPIPTLSGFPMTLPTPVSQPTAMPSGPTGSMPLTLGQPIMGINLVGPVGGAAAPTSSGFMPAYPSNQVGKTEEDDFQDFQDASKSGSIDDSFTDFQEMPASSKTSNSQHGNSAPSLLIPFPGTKASTDKYAVFKGISTDKPSENPASFGESGDKYSAFRELEQTTDSKPLGESFAEFRSTGTDDGFTDFKTADSVSPLEPPTKDTFPSAFASGAAQQTQTQVKTPLNLEDLDMFSSVDCSGEKQVPFSATFSTAKSVSTRPQPAGSAAASAALASTKTSSLADDFGEFNLFGEYSNPASAGEQDDFADFMAFGNSSISSEPKASDKYEALREEVSPSPLSSSTVEGAQHPPAAATKYDVFKQLSLEGAGLAMEEFKENTSSTKSEDDFADFHSSKFSSTSSDKSLGEKAVAFRHAKEDSSSVKSLDLPSIGGSSVGKEDSEDALSVQFDMKLADVGGDLKHVMSDSSLDLPTVSGQHPPAADTEDLSCAAFGSCSSHFTVSTLTSCEWSDRADALQGRKLSPFVLSAGSRSFSATSNLHTKEISFGSSENITMSSLSKGSALASEDALPETAFPAFASFKDMMPQTTEQKEFESGDFQDFTRQDMPTVDRSQETSCPSPASSVASHETPKEGADDFGEFQSEKSKISKFDFLVANSQSKMKSSEEMIKSELATFDLSVQGSHKRSLSLGDKEISRSSPSPALEQPFRDRSNTLSERAALPVIRDKYKDLTGEVEENERYAYEWQRCLGSALDVIKKANDTLNGISSSAVCTEVIQSAQGMEYLLGVVEVYRVTKRVELGIKATAVCSEKLQQLLKDIDKVWNNLIGFMSLATLTPDENSLDFSSCMLRPGIKNAQELACGVCLLNVDSRSRKEETPAEEQPKKAFNSETDSFKLAYGGHQYHASCANFWINCVEPKPPGLLLPDLL"
,binds,,"Dynlrb2, mouse brain (protein, UniProt Q9DAJ5 1-96) MTEVEETLKRIQSHKGVIGTMVVNAEGIPIRTTLDNSTTVQYAGLLHQLTMKAKSTVRDIDPQNDLTFLRIRSKKHEIMVAPDKEYLLIVIQNPCE"
no binding,no binding,,"Aftiphilin, mouse brain (protein, UniProt Q80WT5 1-931) MEPDIIRMYSSSPPPLDNGAEDDEEDEFGEFGGFSEVSPSGVGFVDFDTPDYTRPKEDFVPSNHFMPIHEYSEDVDSLTSFKSVQNGNDKDITAELSTPVKSQSDVVLSTTSKEMIPSKTLDPSIDGMESLEDLDKVVVQGPSTGQLRSFSPGDFRTDKNIVHQTKQLESCNGEKPPCLEILTNGFAGLETVNPQGTDDLDNVADSKGSKPLNTCGTECILESAASHATEFADFSTFSQTERTQLEEIECPVLNDGDTLTIQGNSKGPRVKELNCVKEVTLDGSFEDTGNTEREHQVCVSEIHAVADRGLSVEKQDLQTLQQDEFLNSRIQSEAWSLVDSSENSEAITKERCKMEKNDLFASKCADLSMDSVKTSDVNEIGSSKEENRKLTNPKSPDPDPTGQNALDDSAASMKNGDSGNGFVTCHDTNEDDFGDFGTANGTTPPFVTSTQDSMSDVTFEDSSEHFLHLSEPGDDFGEFEDTNAVSCQEEMRFTESDLRQTSDGLSEECPLAGESGGKDSKPDSKLKNGQDSEFGDFDSVPNTQGSAFQDSDDFADFSSAGPSQAVDWNAFEDEQKDGCSWAAFGDQQETESHHLKEVWQSQRTDETMGTLGTPKMHSVSSAASKGAVASGHLQEPGTSVQTALLNRLERIFEACFPSVFVPDVEEEVSSLKHLLETHSSPAKTREALADRGELRGVWTELQDIHDAHGLRYQWGGSHSNKKLLCSLGIDTRNILFTGNKKQPVIVPMYAAGLGMLEPTKEPLKPLSAAEKIASIGQTTVMTPEINTCTSDPFQESLPPVQFDWSSSGLTNPLDASGGSTLLNLDFFGPVDDSSSSSSTIPGVDPELYELTTAKLETSTSSLRVTDAFAKLMSTVEKTSTSTRKPKREEHLSEEAMKVIASLPDLTFMHAKVLMFPATLTPSMSSQEQADA"
binds,,no binding,"Wdr91, mouse brain (protein, UniProt Q7TMQ7 1-748) MAEAVERTDELVREYLLFRGFTHTLRQLDAEIKADKEKGFRVDKIVDQLQQLMQVYDLAALRDYWSYLERRLFSRLEDIYRPTINKLKTSLFRFYLVYTIQTNRNDKAQEFFAKQATELQNQAEWKDWFVLPFLPSPDTNPTFATYFSRQWADTFIISLHNFLSVLFQCMPVPVILNFDAECQRTNQVQEENEVLRQKLFALQAEIHRLKKEEQQQEEEAAALVQHKLPPYVSSMDRLGDSELALVCSQRPASLSQSPRVGFLSSLLPQSKKSPSRLSPAQGPPQAQSSAKKDSFSSQATKGKDSVPGAKDGKSLLSGPVPGEASWTHQRQRRLQDHGKERRELLSTSSSQSQCAERKPEVSGAEAEPCLELHMGPVEVLARVSTAGSEGDRPEQPFIVLSQEEYGEHHSSIMHCRVDCSGRRVASLDVDGVIKVWSFNPIMQTKASSISKSPLLSLEWATKRDRLLLLGSGVGTVRLYDTEAKKNLCEININDDMPRILSLACSPNGASFVCSAAAPSLTSQTDSSAPDIGSKGMNQVPGKLLLWDTKTMKQQLQFSLDPEPIAINCTAFNHNGNLLVTGAADGVIRLFDMQQHECAMSWKAHCGEVYSVEFSCDENAVYSIGEDRKFIQWNIHKSGLKVSESNLPSDATGPFVLSGYSGYKQVQVPRGRLFAFDSEGNYMLTCSATGGLIYKLGSEEKVLENCLSLGGHRAPVVTVDWSTAMDCGTCLTASMDGKIKLTTLLAHKL"
,binds,,"Ndel1, mouse brain (protein, UniProt Q9ERR1 1-345) MDGEDIPDFSSLKEETAYWKELSLKYKQSFQEARDELVEFQEGSRELEAELEAQLVQAEQRNRDLQADNQRLKYEVEALKEKLEHQYAQSYKQVSVLEDDLSQTRAIKEQLHKYVRELEQANDDLERAKRATIVSLEDFEQRLNQAIERNAFLESELDEKESLLVSVQRLKDEARDLRQELAVRERQQEVTRKSAPSSPTLDCEKMDSAVQASLSLPATPVGKGTENSFPSPKAIPNGFGTSPLTPSARISALNIVGDLLRKVGALESKLAACRNFAKDQASRKSYVPGSVNCGVMNSNGPECPRSGRATFFHKGAVNGFDPAPPPPGLGSSRPSSAPGMLPLSV"
